Measured data: PubChem BioAssay AID1159578 (Peter MacCallum Cancer Centre, 2015)
In all, the deposit lists about 18,000 reagents; shown is a random part of them. About 1,030 of all reagents (5.7%) count as active. 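Inactive calls also include pools with fewer than 3300 nuclei, whose migration was not assessed.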 The raw values are shown without normalisation. Further read-outs or replicates are left out here.

Assay: 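Genome-wide hunt for genes controlling movement of lymphatic endothelial cells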 (primary screen)
System: human lymphatic endothelial cells
Knock-down reagent: siRNA pool against human genes, 40 nM
Duration: 48 h after transfection
Detection: 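Cells stained with dye and imaged after a scratch; covered wound area and nuclei counted, duplicates averaged, migration set against mock wells and turned into a robust z-score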
Reading the numbers: migration robust z-score: higher = faster migration into the scratch; nuclei per well: higher = more cells in the well
Rule for the call: 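Migration changed when robust z exceeds 2 or falls below -2 and mean nuclei number is at least 3300; otherwise not called changed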
Meaning of the calls: active = migration changed; inactive = no migration change, or too few cells

CCT8 (chaperonin containing TCP1 subunit 8) scored migration robust z-score -2.02; nuclei per well, duplicate mean 3626; active. After knock-down of KLK7 (kallikrein related peptidase 7), the screen gave migration robust z-score 0.13; nuclei per well, duplicate mean 5452; inactive. SIAH1 (siah E3 ubiquitin protein ligase 1) scored migration robust z-score -0.26; nuclei per well, duplicate mean 4803; inactive. With knock-down of ATXN10 (ataxin 10), the record shows migration robust z-score 1.47; nuclei per well, duplicate mean 5466; inactive. MMP27 (matrix metallopeptidase 27) showed migration robust z-score 0.78; nuclei per well, duplicate mean 5480; inactive. PBRM1 (polybromo 1) gave migration robust z-score 0.16; nuclei per well, duplicate mean 4854; inactive.

Silencing of RAB23 (RAB23, member RAS oncogene family) resulted in: migration robust z-score 1.25; nuclei per well, duplicate mean 6283; inactive. CYFIP1 (cytoplasmic FMR1 interacting protein 1) gave migration robust z-score 0.04; nuclei per well, duplicate mean 5000; inactive.

Called active, of those listed so far:
CCT8 (chaperonin containing TCP1 subunit 8): migration robust z-score = -2.02; nuclei per well, duplicate mean = 3626; activity call = active

Additional entries:
Silencing of PHOSPHO2 (phosphatase, orphan 2) resulted in: migration robust z-score 0.66; nuclei per well, duplicate mean 6480; inactive. After knock-down of VAMP2 (vesicle associated membrane protein 2), the screen gave migration robust z-score 1.45; nuclei per well, duplicate mean 6992; inactive. With knock-down of LDLRAD1 (low density lipoprotein receptor class A domain containing 1), the record shows migration robust z-score 1.09; nuclei per well, duplicate mean 7532; inactive. With knock-down of RNASEH2C (ribonuclease H2 subunit C), the record shows migration robust z-score -2.46; nuclei per well, duplicate mean 4392; active. GPLD1 (glycosylphosphatidylinositol specific phospholipase D1) showed migration robust z-score 0.06; nuclei per well, duplicate mean 6066; inactive. Depletion of CD8B (CD8 subunit beta) resulted in: migration robust z-score -1.02; nuclei per well, duplicate mean 6232; inactive.

Silencing of MADCAM1 (mucosal vascular addressin cell adhesion molecule 1) came out at: migration robust z-score 1.56; nuclei per well, duplicate mean 5533; inactive. Against OR51D1 (olfactory receptor family 51 subfamily D member 1) the deposit lists migration robust z-score -0.89; nuclei per well, duplicate mean 5485; inactive. Against CAVIN1 (caveolae associated protein 1), the entry reads migration robust z-score -0.67; nuclei per well, duplicate mean 5958; inactive. Against SAMD10 (sterile alpha motif domain containing 10), the entry reads migration robust z-score 0.04; nuclei per well, duplicate mean 6725; inactive. Silencing of CLEC18C (C-type lectin domain family 18 member C) came out at: migration robust z-score -1.25; nuclei per well, duplicate mean 6328; inactive. With knock-down of ALDH1L1 (aldehyde dehydrogenase 1 family member L1), the record shows migration robust z-score 1.33; nuclei per well, duplicate mean 5655; inactive.

Knock-down of LGI4 (leucine rich repeat LGI family member 4) came out at: migration robust z-score 0.88; nuclei per well, duplicate mean 6055; inactive.
